Our source for the binding values is paper PMC11695938.

Results are given in words; binding and its absence hold for the method and conditions named. Binding seen in cells or lysates may run through a third protein.

The target of assay [1] is FNDC1 (His-tagged, expressed in C2C12 cells) (mouse). Kind of assay: co-IP; C2C12 cells transfected, 48 h after differentiation, lysed; total proteins immunoprecipitated with His or Flag magnetic beads at 4 °C overnight; immunoblot. Background: A western blot detects proteins with antibodies after separation by electrophoresis.
Assay [2] deals with FNDC1, in primary myoblasts (mouse). The experiment in a line: co-IP; immunoprecipitation in primary myoblasts.

B1: Integrin αv (ITGAV), in C2C12 cells (receptor, UniProt P43406 31-1044)
chain: FNLDVESPAEYAGPEGSYFGFAVDFFEPSTSSRMFLLVGAPKANTTQPGIVEGGQVLKCECSSSRRCQPIEFDSTGNRDYAKDDPLEFKSHQWFGASVRSKQDKILACAPLYHWRTEMKQEREPVGTCFLQDGTKTVEYAPCRSKNIDADGQGFCQGGFSIDFTKADRVLLGGPGSFYWQGQLISDQVAEIISKYDPNVYSIKYNNQLATRTAQAIFDDSYLGYSVAVGDFNGDGIEDFVSGVPRAARTLGMVYIYDGKNMSSLHNFTGEQMAAYFGFSVAATDINGDDYADVFIGAPLFMDRGSDGKLQEVGQVSVSLQRAVGDFQTTKLNGFEVFARFGSAIAPLGDLDQDGFNDIAIAAPYGGEDKKGLVYIFNGRSTGLNSVPSQILEGQWAAQSMPPSFGYSMKGATDVDRNGYPDLVVGAFGVDRAVLYRARPVVTVNAGLEVYPSILNQDNKICPLPGTALKVSCFNVRFCLKADGKGTLPRKLHFQVELLLDKLKQKGAIRRALFLHNRSPVHSKTMTVFRGGQMQCEELVAYLRDESEFRDKLTPITIFMEYRLDQRTAADATGLQPILNQFTPANVSRQAHILLDCGEDNVCKPKLEVSVNSDQKKIYIGDDNPLTLTVKAQNQGEGAYEAELIVSIPPQADFIGVVRNNEALARLSCAFKTENQTRQVVCDLGNPMKAGTQLLAGLRFSVHQQSEMDTSVKFDLKIQSSNSFDNVSPVVSYKVDLAVLAAVEIRGVSSPDHIFLPIPNWEYKENPETEEDVGPIVQHIYELRNNGPSSFSKAILNLQWPYKYNNNTLLYILHYDIDGPMNCTADTEINPLRIKTPEKNDTAAAGQGERNHLITKRDLTLREGDVHTLGCGIAKCLQITCQVGRLDRGKSAILYVKSLLWTETFMNKENQNHSYSLKSSASFNIIEFPYKNLPIEDLFNSTLVTTNITWGIQPAPMPVPVWVIILAVLAGLLLLAVLVFVMYRMGFFKRVRPPQEEQEREQLQPHENGEGNSET
In the case of B1, the binding entry in assay [1] is recorded as “no binding”.

B2: Integrin αv (ITGAV), in primary myoblasts (receptor, UniProt P43406 31-1044)
chain: B1 chain
Consider B2, for which, in assay [2], the binding result was “no binding”.
